PubChem BioAssay AID1508588 – Peter MacCallum Cancer Centre, 2020

Assay: 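Which gene losses make BRAF-mutant melanoma cells more responsive to vemurafenib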 (primary screen)
System: human WM266.4 melanoma cells (BRAF V600 mutant)
Reagents: siRNA pool against human genes, 40 nM
Time to read-out: 96 h from transfection to read-out
Conditions: vemurafenib 300 nM (about IC25), added 48 h after transfection, for 48 h; comparison arm got DMSO vehicle only
Measured: 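Cell gain (DAPI nuclei at end minus before drug, mean of two replicates) and medium lactate by absorbance per cell, both as ratio to non-targeting siRNA, also grouped into fold-change classes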
Scale: cell gain with vemurafenib: higher = more cell gain than with non-targeting siRNA; lactate per cell with vemurafenib: higher = more lactate made per cell
Hit rule: 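Enhancement is called by pairing each knock-down's vehicle-arm and drug-arm fold-change classes for viability or glycolysis; which class combinations qualify is not given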
Calls: active = enhances vemurafenib effect; inactive = no enhancement seen
The whole screen tested about 18,000 reagents; below is an unselected part. In the full data, 790 (4.4%) were called active. 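Calls rest on a combination of fold-change classes in drug and vehicle arms, not all shown here.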 Unmarked entries are inactive.

Target gene	cell gain with vemurafenib	lactate per cell with vemurafenib
NKX6-1	0.73	1.29
MYLIP	0.46	1
ACKR5	0.31	0.22
ATR	0.21	1.75
VAT1	0.28	0.73
OR8B2	0.69	0.78
PRR22	0.32	1.29
SCMH1	0.8	0.82
EEF1B2	0.97	0.64
CD276	0.75	1.48
CPN1	1.19	1.02
SEC63	0.72	1.06
CCDC183	0.62	0.87
RBPMS2	0.65	0.88
FBXL18	1.23	0.86
TAFA5	0.68	0.51
PPP1R8	0.48	0.72
DAAM2	0.19	0.5
CA2	0.54	1.96
TSNAXIP1	0.44	0.34
SPCS1	0.06 (active)	0.34
ATG16L2	0.82	0.85
SPRTN	0.42	2.08
LEAP2	0.36 (active)	0.42
PHLDB2	0.86	0.92
SH3GLB1	0.12	1.27
SAMD12	0.71	1.84
SPANXN1	0.62	0.84
BCS1L	0.24	0.97
CPM	0.24	1.83
EEF2	0.62	0.28
BBS5	0.63	0.69
ZNF768	0.5	1.04
MYOM2	0.83	0.63
ADO	1.05	0.74
ZNF718	0.84	0.87
MMP2	0.86	0.55
CTAG2	0.45	1.86
CTSV	0.83	0.82
HCAR3	0.8	0.5
KRT35	0.8	0.9
CSAD	0.51	1.32
SYT6	1.07	0.51
SLC15A3	0.83	0.36
GTF3C3	0.51	1.46
STK17B	0.53	1.05
TIMMDC1	0.69	1.12
DNAAF4	1.09	0.53
RENBP	0.87	0.89
ABHD8	0.88	1.02
SPMAP2	0.53	1.09
HDHD5	0.56	0.52
GPR157	-0.02 (active)	0.3
KMT5B	0.61	0.72
SCN5A	0.71	1.3
MRAP	0.86	0.6
GUSB	1.17	0.99
ANKRD46	0.69 (active)	0.47
SIN3B	0.33	2.44
URM1	0.5	0.79
KRT2	0.39	1.01
SOCS3	0.4	2.18
EXOSC1	0.32	1.33
CHCHD3	0.98	1.06
SLC6A2	-0.11	0.59
KCNK10	0.41	0.76
GPRC6A	0.53	0.94
CCT8L2	1.18	0.5
FLOT2	0.5	0.92
NTAN1	0.88 (active)	0.7
TSC22D2	0.97	0.42
NR2F1	1.26	0.77
ARRDC4	0.9	0.72
CIDEC	0.83	0.86
TEX44	0.06	0.74
MPLKIP	0.33	1.58
WNT1	0.55	0.79
SMIM11	1.01	0.6
DPCD	0.79	1.08
FOXH1	0.58	0.76
CFAP300	0.56	1.33
MLKL	0.38	0.8
HSD11B2	0.25	1.08
GORASP2	0.67	1.15
ZNF574	0.2	1.44
DAP3	0.47	0.98
IFTAP	0.3	0.88
MLXIPL	0.6 (active)	0.46
GPT	0.46	1.86
SGPP1	0.9	0.9
SNAPIN	0.42 (active)	0.28
NUP98	0.18	1.34
PLD4	0.69	0.8
TBC1D9B	0.39	1.46
BCAS3	1.02	0.86
PRB2	0.98	1
ZFYVE21	0.6	0.51
UBP1	0.23	0.78
INTS6	0.17	2.04
CNIH1	-0.09	1.84
RBP5	0.68	1.08
VPREB3	0.23	2.28
MAZ	0.51	1.84
WNT5A	0.39	1.49
SLC7A6OS	0.16	3.14
NUCB1	0.66	0.6
IFNGR1	0.48	0.46
